# Results as given in the supplement of paper PMC7024190.
# Where a name gives a salt, the structure may show the parent alone. The list shows a part of the results. Repeats in this data set agree poorly, so a single value says little.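 The cells were human embryonic kidney cells carrying a Renilla luciferase gene, driven by the HSV-TK promoter, on a plasmid put in briefly by transfection. This is the first-round screen of about ten thousand compounds, looking for ones that raise reporter output.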
# Tested on: HEK 293FT
# Assay: log relative Renilla luciferase luminescence (reporter expression vs reference, reference not stated) (log (base not stated)); higher = higher recombinant reporter expression
# Conditions: 10 µM; time after transfection 48 h
row,Compound,log
1,CCCCCCCCCCCC[C@@H](C(=O)O)[C@H](C)C(=O)O [roccellic acid],0.142
2,CC(C)NNC(=O)c1ccncc1 [iproniazid sulfate],-0.829
3,CSCC[C@H](NC(=O)[C@H](Cc1c[nH]c2ccccc12)NC(=O)CCNC(=O)OC(C)(C)C)C(=O)N[C@@H](CC(=O)O)C(=O)N[C@@H](Cc1ccccc1)C(N)=O [pentagastrin],-0.0962
4,O=C1c2cccc(O)c2C(=O)c2c(O)cccc21 [danthron],-0.0586
5,CCOC(N)=O [urethane],0.112
6,C[C@@H]1CC[C@@]2(OC1)O[C@H]1C[C@H]3[C@@H]4CC=C5C[C@@H](O)CC[C@]5(C)[C@H]4CC[C@]3(C)[C@H]1[C@@H]2C [diosgenin],0.033
7,O=C(O)c1ccccc1Nc1cccc(C(F)(F)F)c1 [flufenamic acid],-0.139
8,OCCc1ccccc1 [phenylethyl alcohol],0.443
9,CC(=O)Nc1ccc(S(=O)(=O)c2ccc(NC(C)=O)cc2)cc1 [acedapsone],-0.0392
10,O=C1O[C@H]([C@@H](O)CO)C(O)=C1O [ascorbic acid],0.127
11,Clc1ccc(C(c2ccccc2Cl)C(Cl)Cl)cc1 (stereo not drawn) [mitotane],-0.139
12,O=C(/C=C/c1ccccc1)c1ccc(O)cc1 [4'-hydroxychalcone],0.125
13,CCc1cc(Cl)c(OC)c(C(=O)NC[C@@H]2CCCN2CC)c1O [eticlopride hydrochloride],-0.0457
14,CN(C)CCOC(=O)C(c1ccccc1)C1(O)CCCC1 (stereo not drawn) [cyclopentolate hydrochloride],-0.117
15,Nc1ccc(/N=N/c2ccccc2)c(N)n1 [phenazopyridine hydrochloride],0.136
16,C[C@H](N[C@@H](CCc1ccccc1)C(=O)O)C(=O)N1Cc2ccccc2C[C@H]1C(=O)O [quinaprilat],0.195
17,CCC(=O)O[C@]1(C(=O)SCF)[C@H](C)C[C@H]2[C@@H]3C[C@H](F)C4=CC(=O)C=C[C@]4(C)[C@@]3(F)[C@@H](O)C[C@@]21C [fluticasone propionate],0.0523
18,Cc1c(S(=O)(=O)O)oc2c1C(=O)C(=O)c1c-2ccc2c1CCCC2(C)C [tanshinone iia sulfonate sodium],-0.382
19,COc1cc(/C=C/C(=O)O)cc(OC)c1O [sinapic acid],-0.134
20,NCCCS(=O)(=O)O [tramiprosate],-0.0483
21,Nc1nc(/C(=C/CC(=O)O)C(=O)N[C@@H]2C(=O)N3C(C(=O)O)=CCS[C@H]23)cs1 [ceftibuten],-0.0331
22,CCc1nn(CCCN2CCN(c3cccc(Cl)c3)CC2)c(=O)n1CCOc1ccccc1 [nefazodone hydrochloride],-0.229
23,O=S(=O)(c1cccc2cnccc12)N1CCCNCC1 [fasudil hydrochloride],-0.0574
24,C=C[C@@]1(C)CC(=O)[C@@]2(O)[C@](C)(O1)[C@@H](O)[C@@H](O)C1C(C)(C)CC[C@H](O)[C@@]12C (stereo partly drawn) [desacetylcolforsin],0.0163
25,CCCNC(C)(C)COC(=O)c1ccccc1 [meprylcaine hydrochloride],-0.00023

row,Compound,log
1,COc1ccc(C(C)=O)c(OC)c1 [peonol methyl ether],0.0319
2,CC(NCCc1ccc(O)cc1)C(O)c1ccc(O)cc1 (stereo not drawn) [ritodrine hydrochloride],0.0363
3,CC(=O)Nc1ccc(OC(C)=O)cc1 [diacetamate],-0.0425
4,NC1CCN(c2c(F)cc3c(=O)c(C(=O)O)cn(C4CC4)c3c2Cl)C1 (stereo not drawn) [clinafoxacin hydrochloride],-0.152
5,CCC1(C)CC(=O)NC1=O (stereo not drawn) [ethosuximide],-0.0286
6,O=[N+]([O-])c1ccc(O)c2ncccc12 [nitroxoline],-0.833
7,CCCc1nn(C)c2c(=O)[nH]c(-c3cc(S(=O)(=O)N4CCN(C)CC4)ccc3OCC)nc12 [sildenafil citrate],-0.231
8,CC(O)(CC(=O)O)CC(=O)O [meglutol],-0.0639
9,O=C1CC[C@]23/C=C/C(=O)NCCCCNCCCNC(=O)/C=C/c4ccc(c2c4)O[C@@H]3C1 [lunarine],0.00792
10,CCCCS(=N)(=O)CCC(N)C(=O)O (stereo not drawn) [l-buthionine sulfoximine],0.0358
11,C[C@@H]1CN(c2c(F)c(F)c3c(=O)c(C(=O)O)cn(C4CC4)c3c2F)C[C@H](C)N1 [orbifloxacin],0.0323
12,CCC(C)(C)C(=O)O[C@H]1C[C@@H](C)C=C2C=C[C@H](C)[C@H](CC[C@@H]3C[C@@H](O)CC(=O)O3)[C@H]21 [simvastatin],-0.0484
13,CCOC(=O)CC(=O)N1CCSC1COc1ccccc1OC (stereo not drawn) [moguisteine],0.102
14,CC(=O)Oc1ccc(C(c2ccc(OC(C)=O)cc2)c2ccccn2)cc1 [bisacodyl],-0.435
15,CC1(C)CC2C1CC[C@]1(CBr)CCC3C(CC(=O)O)C(=O)O[C@@]32C1 (stereo partly drawn) [bromo-3-hydroxy-4-(succin-2-yl)-caryolane gamma-lactone],0.0037
16,CC(=O)[C@@]1(O)CC[C@H]2[C@@H]3CCC4=CC(=O)CC[C@]4(C)[C@H]3CC[C@@]21C [hydroxyprogesterone],0.00103
17,COC(=O)C(OC)=C(OC)c1ccccc1OC [methyl trimethoxycinnamate],0.227
18,O=C(c1ccc(F)cc1)C1CCN(CCn2c(=O)[nH]c3ccccc3c2=O)CC1 [ketanserin tartrate],0.074
19,CCN(CC)C(=O)c1ccc(O)c(OC)c1 [ethamivan],0.18
20,COc1ccc(-c2cc(=O)c3c(O)c(OC)c(OC)c(OC)c3o2)cc1 [gardenin b],-0.0396
21,Oc1cc2c(cc1O)C1c3ccc(O)c(O)c3OCC1(O)C2 (stereo not drawn) [haematoxylin],0.152
22,CC(=O)O[C@@H]1C[C@H]2C(C)(C)C(=O)C=C[C@]2(C)[C@H]2CC[C@@]3(C)[C@H](c4ccoc4)OC(=O)[C@H]4O[C@]43[C@@]21C [gedunin],-0.196
23,CCCOc1ccc2[nH]c(NC(=O)OC)nc2c1 [oxibendazole],0.269
24,Cc1cc2nc3c(=O)[nH]c(=O)nc-3n(C[C@H](O)[C@H](O)[C@H](O)CO)c2cc1C [riboflavin],0.0209
25,CC[C@H](C)[C@H]1O[C@]2(C=C[C@@H]1C)C[C@@H]1C[C@@H](C/C=C(\C)[C@@H](O[C@H]3C[C@H](OC)[C@@H](O[C@H]4C[C@H](OC)[C@@H](O)[C@H](C)O4)[C@H](C)O3)[C@@H](C)/C=C/C=C3\CO[C@@H]4[C@H](OC)C(C)=C[C@@H](C(=O)O1)[C@]34O)O2 [avermectin a1a],-0.977

row,Compound,log
1,CN(C)CCOC(c1ccccc1)c1ccccc1.Cn1c(=O)c2[nH]c(Cl)nc2n(C)c1=O [dimenhydrinate],0.0336
2,O=C1NCC2(CCN(CCc3ccccc3)CC2)O1 [fenspiride hydrochloride],-0.206
3,Clc1ccc2c(c1)CCc1cccnc1C2=C1CCNCC1 [desloratidine],0.0139
4,COc1cc(C)c(C(=O)Oc2cc(C)c(C(=O)O)c(O)c2C)c(OC)c1C [diffractaic acid],0.161
5,CC1(C)CC2C1CC[C@]1(C)CCC3C(C(=O)O)CC(=O)O[C@@]32C1 (stereo partly drawn) [3-hydroxy-4-(succin-2-yl)-caryolane delta-lactone],0.053
6,CCN(CC)C(C)CN1c2ccccc2Sc2ccccc21 (stereo not drawn) [ethopropazine hydrochloride],0.104
7,CCCNC(=O)NS(=O)(=O)c1ccc(Cl)cc1 [chlorpropamide],-0.0396
8,CC(=O)O[C@]1(C(C)=O)CC[C@H]2[C@@H]3C=C(Cl)C4=CC(=O)CC[C@]4(C)[C@H]3CC[C@@]21C [chlormadinone acetate],0.0832
9,Cc1cc(O)c(C(=O)N[C@@H](C(=O)N[C@@H]2C(=O)N3C(C(=O)O)=C(CSc4nnnn4C)CS[C@H]23)c2ccc(O)cc2)cn1 [cefpiramide],-0.0526
10,CO[C@H]1/C=C/O[C@@]2(C)Oc3c(C)c(O)c4c(O)c(c5c(nc6cc(C)ccn65)c4c3C2=O)NC(=O)/C(C)=C\C=C\[C@H](C)[C@H](O)[C@@H](C)[C@@H](O)[C@@H](C)[C@H](OC(C)=O)[C@@H]1C [rifaximin],0.0725
11,Clc1cccc(Cl)c1NC1=NCCN1 [clonidine hydrochloride],-0.0923
12,C[C@]12C=CC(=O)N[C@@H]1CC[C@@H]1[C@@H]2CC[C@]2(C)[C@@H](C(=O)Nc3cc(C(F)(F)F)ccc3C(F)(F)F)CC[C@@H]12 [dutasteride],-0.0102
13,CCCCCCCCCCCCCCCC(=O)OC[C@H](O)[C@H]1OC(=O)C(O)=C1O [ascorbyl palmitate],-0.00459
14,Nc1nc2c(ncn2COC(CO)CO)c(=O)[nH]1 [ganciclovir],-0.0168
15,NCCCCCC(=O)O [aminocaproic acid],-0.0953
16,CC(=O)OC/C=C(\C)CC/C=C(\C)CC/C=C(\C)CC/C=C(\C)CC/C=C(\C)CC/C=C(\C)CC/C=C(\C)CC/C=C(\C)CCC=C(C)C [solanesyl acetate],0.146
17,CN(C)C(=N)NC(=N)N [metformin hydrochloride],-0.267
18,CC=CC(=O)N(CC)c1ccccc1C [crotamiton],-0.114
19,CC1CC2C3CCC4=CC(=O)C=CC4(C)C3(F)C(O)CC2(C)C1C(=O)CO (stereo not drawn) [desoxymetasone],-0.09
20,CNCCc1ccccn1 [betahistine hydrochloride],-1.41
21,CC1=C(C)C(=O)C(C(CCCCCC(=O)O)c2ccccc2)=C(C)C1=O (stereo not drawn) [seratrodast],0.00106
22,CC(C)NCC(O)COc1ccc(CC(N)=O)cc1 (stereo not drawn) [atenolol],-0.00605
23,NC(Cn1ccc(=O)c(O)c1)C(=O)O (stereo not drawn) [mimosine],-0.000568

# Shown tab-delimited: 21 of the compounds above
row	Compound	log
3	Clc1ccc2c(c1)CCc1cccnc1C2=C1CCNCC1 [desloratidine]	0.0139
4	COc1cc(C)c(C(=O)Oc2cc(C)c(C(=O)O)c(O)c2C)c(OC)c1C [diffractaic acid]	0.161
5	CC1(C)CC2C1CC[C@]1(C)CCC3C(C(=O)O)CC(=O)O[C@@]32C1 (stereo partly drawn) [3-hydroxy-4-(succin-2-yl)-caryolane delta-lactone]	0.053
6	CCN(CC)C(C)CN1c2ccccc2Sc2ccccc21 (stereo not drawn) [ethopropazine hydrochloride]	0.104
7	CCCNC(=O)NS(=O)(=O)c1ccc(Cl)cc1 [chlorpropamide]	-0.0396
8	CC(=O)O[C@]1(C(C)=O)CC[C@H]2[C@@H]3C=C(Cl)C4=CC(=O)CC[C@]4(C)[C@H]3CC[C@@]21C [chlormadinone acetate]	0.0832
9	Cc1cc(O)c(C(=O)N[C@@H](C(=O)N[C@@H]2C(=O)N3C(C(=O)O)=C(CSc4nnnn4C)CS[C@H]23)c2ccc(O)cc2)cn1 [cefpiramide]	-0.0526
10	CO[C@H]1/C=C/O[C@@]2(C)Oc3c(C)c(O)c4c(O)c(c5c(nc6cc(C)ccn65)c4c3C2=O)NC(=O)/C(C)=C\C=C\[C@H](C)[C@H](O)[C@@H](C)[C@@H](O)[C@@H](C)[C@H](OC(C)=O)[C@@H]1C [rifaximin]	0.0725
11	Clc1cccc(Cl)c1NC1=NCCN1 [clonidine hydrochloride]	-0.0923
12	C[C@]12C=CC(=O)N[C@@H]1CC[C@@H]1[C@@H]2CC[C@]2(C)[C@@H](C(=O)Nc3cc(C(F)(F)F)ccc3C(F)(F)F)CC[C@@H]12 [dutasteride]	-0.0102
13	CCCCCCCCCCCCCCCC(=O)OC[C@H](O)[C@H]1OC(=O)C(O)=C1O [ascorbyl palmitate]	-0.00459
14	Nc1nc2c(ncn2COC(CO)CO)c(=O)[nH]1 [ganciclovir]	-0.0168
15	NCCCCCC(=O)O [aminocaproic acid]	-0.0953
16	CC(=O)OC/C=C(\C)CC/C=C(\C)CC/C=C(\C)CC/C=C(\C)CC/C=C(\C)CC/C=C(\C)CC/C=C(\C)CC/C=C(\C)CCC=C(C)C [solanesyl acetate]	0.146
17	CN(C)C(=N)NC(=N)N [metformin hydrochloride]	-0.267
18	CC=CC(=O)N(CC)c1ccccc1C [crotamiton]	-0.114
19	CC1CC2C3CCC4=CC(=O)C=CC4(C)C3(F)C(O)CC2(C)C1C(=O)CO (stereo not drawn) [desoxymetasone]	-0.09
20	CNCCc1ccccn1 [betahistine hydrochloride]	-1.41
21	CC1=C(C)C(=O)C(C(CCCCCC(=O)O)c2ccccc2)=C(C)C1=O (stereo not drawn) [seratrodast]	0.00106
22	CC(C)NCC(O)COc1ccc(CC(N)=O)cc1 (stereo not drawn) [atenolol]	-0.00605
23	NC(Cn1ccc(=O)c(O)c1)C(=O)O (stereo not drawn) [mimosine]	-0.000568
